In all, about 300,000 compounds went through this assay and about 5,400 (1.8%) were called active. Inconclusive results, whose numbers are uncertain, are shown with a selection of clear calls. The call rests on the fitted dose curve; tested in HEK293 cells. A potency beside an inconclusive call is a rough fit, not a confirmed value.
Assay: qHTS for inhibitors of binding or entry into cells for Marburg Virus
Conditions: Marburg virus pseudotyped entry inhibition, cell reporter; series mostly up to 37.8 µM
Potency means the concentration at half of the fitted maximal effect.

Structure (SMILES) | Potency
Clc1ccc(-c2nc(/C=N/N3CCOCC3)c3ccccn23)cc1 | inconclusive: 6.31 µM [activator, single point]
CCc1cc(-c2n[nH]c(=S)n2Cc2ccccc2)cs1 | inactive
OCc1nc2c(ccc3ccccc32)[nH]1 | inconclusive: 20 µM [activator, single point]
O=c1[nH]c2ccccc2cc1CN(CC1CCCO1)S(=O)(=O)c1ccc(Cl)cc1 (centres undefined) | inconclusive: 0.562 µM [inhibitor, full curve, poor fit]
NC(=O)C1CCN(C2CC(=O)N(c3ccc(F)c(Cl)c3)C2=O)CC1 (centres undefined) | inactive
O=Nc1c(O)n(Cc2cccc(Cl)c2)c2ccccc12 | inconclusive: 18.3 µM [inhibitor, single point]
CCCNC(=O)COC(=O)c1ccc(S(=O)(=O)N2CCCCCC2)cc1 | inactive
CCc1ccc(NC(=O)Cn2c(=O)n(-c3ccccc3)c(=O)c3ccc(C(=O)NCc4ccc5c(c4)OCO5)cc32)cc1 | inconclusive: 1 µM [inhibitor, full curve, poor fit]
CS(=O)(=O)N(CC(=O)N1CCCC1)c1ccc2c(c1)OCCO2 | inactive
Cc1c(Br)ccc(NC(=O)CCN2C(=O)C3C4CCC(C4)C3C2=O)c1C (centres undefined) | inactive
COC(=O)C1=C(C)NC(C)=C(C(=O)OC)C1C(=O)OCC(=O)N1c2ccccc2CC1C (centres undefined) | inconclusive: 2 µM [activator, partial curve, poor fit]
COc1ccc(Cl)cc1NC(=O)c1ncn(-c2ccccc2)n1 | inactive
Cc1c(N2C(=O)/C(=C/c3ccccc3)SC2=S)c(=O)n(-c2ccccc2)n1C | inactive
CC(C)OC(=O)c1cccc(C(=O)Nc2cccc(NC(=O)c3cccc(C(=O)OC(C)C)n3)n2)n1 | inconclusive: 1.41 µM [inhibitor, partial curve, poor fit]
O=c1c2ccccc2nc(-c2ccccc2F)n1-c1ccccc1 | inconclusive: 14.1 µM [inhibitor, partial curve, poor fit]
COc1ccc(C2(c3ccc(OC)cc3)NC(=O)N(CC(=O)Nc3ccccc3)C2=O)cc1 | inconclusive: 35.5 µM [inhibitor, partial curve, poor fit]
COc1ccc(C(=O)COC(=O)C(CC(C)C)N2C(=O)c3ccccc3C2=O)cc1 (centres undefined) | inactive
C#CCN1C(=O)C(O)(CC(=O)c2ccc(OC)c(OC)c2)c2ccccc21 (centres undefined) | inconclusive: 32.6 µM [inhibitor, single point]
CCn1c(=N)n(CC(=O)C(C)(C)C)c2ccccc21 | inactive
CC(NC(=O)COc1ccccc1)C1COc2ccccc2O1 (centres undefined) | inactive
C=CCc1ccc(OCCCOc2ccc(C)c(C)c2)c(OC)c1 | inconclusive: 35.5 µM [activator, single point]
OC(CNCCc1ccc(C(F)(F)F)cc1)COc1ccc2ccccc2c1 (centres undefined) | inconclusive: 18.4 µM [inhibitor, partial curve, poor fit]
O=c1cc[nH]c2c1ccc1c(=O)cc[nH]c12 | inconclusive: 12.6 µM [activator, single point]

Structure (SMILES) | Potency
CCOc1ccc(CCNC(=O)c2ccc(CS(=O)(=O)c3ccccc3C)o2)cc1OCC | inactive
C=CCNc1nc(C(=O)OCC(=O)Nc2ccc(S(N)(=O)=O)cc2)cs1 | inactive
CCOC(=O)N1CCN(C(=O)CNC(=O)c2ccccc2F)CC1 | inconclusive: 6.31 µM [activator, single point]
O=C(Cc1ccc(F)cc1)Nc1ccc(Cl)cn1 | inactive
CC(=O)Nc1ccc(Nc2nc(C)nc3c2nnn3Cc2ccccc2Cl)cc1 | inconclusive: 7.94 µM [inhibitor, partial curve, poor fit]
CCOC(=O)c1cnc2ccc(C(=O)OC)cc2c1Nc1ccc(N2CCOCC2)cc1 | inconclusive: 2.24 µM [inhibitor, partial curve, poor fit]
Cc1nc(C)c(-c2csc(NCCc3ccccc3)n2)s1 | inconclusive: 14.1 µM [inhibitor, partial curve, poor fit]
CN(C)CCCN(C(=O)c1ccco1)c1nc2ccc(Cl)cc2s1 | inconclusive: 10 µM [inhibitor, partial curve, poor fit]
COc1ccc(-n2c(SCC#N)nnc2-c2ccc(NS(=O)(=O)c3ccc(C)cc3)cc2)cc1 | inconclusive: 29.1 µM [inhibitor, single point]
CNc1nc(-c2c(C)n(C)c3ccc(OC)cc23)cs1 | inconclusive: 10 µM [activator, single point]
COCCNC(=O)CSc1ncnc2sccc12 | inconclusive: 23.1 µM [activator, single point]
Cc1ccnc(N/N=C/c2ccco2)n1 | inconclusive: 11.6 µM [activator, partial curve]
Cc1cc(Cl)ccc1OCC(=O)N(Cc1ccc(N(C)C)cc1)CC1CCCO1 (centres undefined) | inconclusive: 35.5 µM [inhibitor, single point]
Cc1nc(C#N)c(N/N=C/c2c(F)cccc2Cl)o1 | inactive
Cc1ccc(OCC(O)CN2CCN(c3ccccc3)CC2)cc1 (centres undefined) | inconclusive: 3.26 µM [activator, partial curve, poor fit]
O=C(Cn1nc(Cl)nc1Cl)c1ccc2c(c1)OCCO2 | inconclusive: 13 µM [inhibitor, partial curve, poor fit]
CC(=NNC(=O)c1ccncc1)c1ccc(O)cc1O | inconclusive: 14.1 µM [inhibitor, single point]
CC(C)C(=O)N1CCN(c2ccc(NC(=O)COc3ccccc3[N+](=O)[O-])cc2)CC1 | inconclusive: 6.31 µM [inhibitor, partial curve, poor fit]
Cc1[nH]c(=S)c(C#N)c(C)c1CCC#N | inconclusive: 7.08 µM [inhibitor, partial curve, poor fit]
CCCCCN1C(C(=O)c2ccccc2)=C(NC(C)=O)c2ccccc2S1(=O)=O | inconclusive: 3.16 µM [inhibitor, partial curve, poor fit]
CC1(C)C2CCC1(CS(=O)(=O)NCc1ccc(C(F)(F)F)cc1)C(=O)C2 (centres undefined) | inconclusive: 1.12 µM [inhibitor, full curve, poor fit]
N#Cc1nc(-c2ccc(OCc3ccc(Cl)cc3)cc2)oc1N1CCC(C(N)=O)CC1 | inactive
Cc1cccc(NC(=O)CSc2nnc(CCCCCNC(=O)OC(C)(C)C)o2)c1C | inconclusive: 8.2 µM [inhibitor, partial curve, poor fit]

Structure (SMILES) | Potency
Cc1cc(NC(=O)C(C)(C)Oc2ccc(Cl)cc2)cc(-c2nc3ncccc3o2)c1O | inactive
CC[n+]1c(/C=C/c2c[nH]c3ccccc23)ccc2cc(C)ccc21 | inconclusive: 1.26 µM [inhibitor, full curve, poor fit]
O=C(Nc1ccc2ccccc2c1)c1ccccc1O | active: 2.51 µM
CC(=O)c1ccc(NC(=O)Nc2ccc3c(c2)N(C)C(=O)CS3)cc1 | inactive
CCN1CCCC1Cn1cnc2c([nH]c3ccc(Cl)cc32)c1=O (centres undefined) | inconclusive: 25.1 µM [inhibitor, single point]
CCOC(C(=O)OCC(O)CN(CC)CC)(c1ccccc1)c1ccccc1 (centres undefined) | inactive
CCOC(=O)N=Nc1c2ccccc2c2nc3no[nH]c3nc12 | inconclusive: 1.58 µM [inhibitor, full curve, poor fit]
Cc1ccc(C(=O)Nc2onc(C)c2C#N)cc1 | inconclusive: 7.08 µM [activator, partial curve, poor fit]
COc1ccc(C)cc1NC(=O)c1ccoc1C | inactive
Cc1ccc(Oc2nsnc2N2CCOCC2)cc1 | inconclusive: 20.6 µM [activator, single point]
CCSc1nnc(NC(=O)NC2CCCCC2)s1 | inconclusive: 10 µM [activator, partial curve, poor fit]
CCOc1ccc(/C=C/C(=O)C(C(N)=O)=C2SCCS2)cc1 | inconclusive: 1 µM [activator, partial curve, poor fit]
COc1ccc(C(CC(=O)Nc2ccc(C)cc2)NC(=O)C(F)(F)F)cc1 (centres undefined) | inconclusive: 2.06 µM [inhibitor, partial curve, poor fit]
CC1CCN(c2ccccc2NC(=O)c2cc([N+](=O)[O-])ccc2N2CCOCC2)CC1 | inconclusive: 20 µM [inhibitor, single point]
COc1ccc(CCNC(=O)COC(=O)C2CC2)cc1 | inconclusive: 3.16 µM [inhibitor, full curve]
CCOc1ccccc1NC(=O)c1ccc2c(Cl)c3c(nc2c1)CCCC3 | inactive
COc1ccccc1C(=O)COC(=O)CCNS(=O)(=O)c1ccc(C)c(C)c1 | inactive
Nc1ccc2cc3[nH]c4cc(N)ccc4c3nc2c1 | inconclusive: 3.98 µM [inhibitor, full curve, poor fit]
COc1ccc(CC(=O)NCc2nc(-c3ccccc3)no2)cc1 | inconclusive: 14.1 µM [inhibitor, partial curve, poor fit]
C/C(=N\NC(=O)c1cc(C)[nH]n1)c1ccc(-c2ccccc2)cc1 | inconclusive: 7.94 µM [activator, partial curve, poor fit]
CC1(C)C(C=C(Cl)Cl)C1C(=O)N(Cc1ccccc1Cl)C1CCS(=O)(=O)C1 (centres undefined) | inconclusive: 20 µM [inhibitor, partial curve, poor fit]
CSC(=Nc1ccccc1)Nc1ccccc1 | inactive
Cc1onc(-c2ccccc2)c1C(=O)N1CCc2ccccc21 | inconclusive: 2.31 µM [inhibitor, partial curve, poor fit]

Grouped by structure: the compounds so far with a furan ring, fused or not
Structure (SMILES) | Potency
CCOc1ccc(CCNC(=O)c2ccc(CS(=O)(=O)c3ccccc3C)o2)cc1OCC | inactive
CN(C)CCCN(C(=O)c1ccco1)c1nc2ccc(Cl)cc2s1 | inconclusive: 10 µM [inhibitor, partial curve, poor fit]
Cc1ccnc(N/N=C/c2ccco2)n1 | inconclusive: 11.6 µM [activator, partial curve]
COc1ccc(C)cc1NC(=O)c1ccoc1C | inactive

— PubChem BioAssay AID540276 (National Center for Advancing Translational Sciences (NCATS), 2011)
